Results are given in words; binding and its absence hold for the method and conditions named. In cells and extracts the contact can be indirect. Binding can be weak; no strength is given. For part of these data: Tags and fused reporters may be left off the sequences shown.
How the values were obtained:
Flag-USP53 = target: T1, Flag-USP53 (UniProt Q70EK8); assay: co-IP; HEK-293T cells cotransfected with Flag-USP53 and HA-RIPK1 or its truncation mutants; anti-Flag IP, Western blotting
T1 sequence: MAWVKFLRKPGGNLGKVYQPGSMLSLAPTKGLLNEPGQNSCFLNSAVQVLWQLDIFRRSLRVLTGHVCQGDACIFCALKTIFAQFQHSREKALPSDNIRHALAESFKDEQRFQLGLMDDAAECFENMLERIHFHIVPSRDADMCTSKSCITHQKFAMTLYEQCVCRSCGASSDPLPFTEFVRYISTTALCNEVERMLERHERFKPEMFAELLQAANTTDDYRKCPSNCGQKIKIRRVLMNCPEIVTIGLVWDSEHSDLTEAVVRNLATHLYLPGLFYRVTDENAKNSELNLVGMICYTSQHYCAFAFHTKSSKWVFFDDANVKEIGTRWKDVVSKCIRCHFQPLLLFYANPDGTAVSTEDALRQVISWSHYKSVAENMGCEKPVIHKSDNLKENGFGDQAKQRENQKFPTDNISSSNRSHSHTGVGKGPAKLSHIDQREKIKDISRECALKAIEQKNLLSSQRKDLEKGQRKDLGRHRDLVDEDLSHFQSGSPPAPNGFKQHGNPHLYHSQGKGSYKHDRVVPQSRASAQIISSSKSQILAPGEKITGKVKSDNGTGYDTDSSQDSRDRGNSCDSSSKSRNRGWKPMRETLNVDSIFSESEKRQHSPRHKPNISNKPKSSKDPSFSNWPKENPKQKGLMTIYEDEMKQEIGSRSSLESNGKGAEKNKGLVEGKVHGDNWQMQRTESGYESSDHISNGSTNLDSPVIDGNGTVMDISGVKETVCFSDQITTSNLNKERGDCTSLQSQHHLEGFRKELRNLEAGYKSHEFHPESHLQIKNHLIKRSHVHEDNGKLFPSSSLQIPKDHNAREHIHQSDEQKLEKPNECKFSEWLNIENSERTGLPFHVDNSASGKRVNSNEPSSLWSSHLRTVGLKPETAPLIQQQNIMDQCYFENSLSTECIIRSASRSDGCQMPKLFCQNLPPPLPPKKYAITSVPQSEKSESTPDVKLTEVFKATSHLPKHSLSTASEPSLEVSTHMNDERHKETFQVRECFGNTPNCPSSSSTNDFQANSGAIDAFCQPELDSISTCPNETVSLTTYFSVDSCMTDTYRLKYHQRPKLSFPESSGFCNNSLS

[1] = target: RIPK1, endogenous in primary rat cardiomyocytes (rat (endogenous in primary cardiomyocytes)); assay: co-IP; endogenous proteins in primary rat cardiomyocytes with or without EtOH; NP-40 lysis buffer, Protein A/G magnetic beads, overnight at 4 °C

HA-RIPK1-ΔID (intermediate domain-depleted RIPK1) (human) (domain or fragment)
binding (Flag-USP53): no binding

HA-RIPK1-ID (intermediate domain) (human) (domain or fragment)
binding (Flag-USP53): binds

B1: USP53, endogenous in primary rat cardiomyocytes (protein, UniProt D3ZYY9 1-1082)
chain: MAWVKFLRKPSGNLGKAYPAGSLLSLAPTVGLLNEPGQNSCFLNSAVQVLWQLDIFRRSLRVLTGHICQGDACIFCALKTIFAQFQHSREKALPSDNIRHALAESFKDEQRFQLGLMDDAAECFENILARIHFHLAPNRDADMCTSKSCVTHQKFAMTLYEQCVCRSCGASSDPLPFTEFVRYISTTALCNEVERMMERHERFKPEMFADLLQAANTADDYRKCPSNCGQKIKIRRVLMNCPEIVTIGLVWDSEHSDLTEDVVRSLATHLYLPGLFYRVTDENAVDSELHLVGMICYTSRHYCAFAFHTKSSKWVFFDDALVKEIGTRWKDVVSKCIRCHLQPLLLFYANPDGTAVSTEDALKQVVHWSHYKSVEENMGCEKPIIYKPDNLKENGFGGQIKQKENHKFQGDNISSFNRSQVQTSGRRAPVKLSHDQREKIKDISRECALKAMEQKNALSSQRKELEKGQRKDTGRHRDVVDEDLSSFKSASPPASDGFRQQGNPHLYHSQGKGPCKHDRAASESSSSGKVMSSSRSQNPLVPGEKTTGKAKSDSGTGYDTDSSQDSRDKGGSYGSRTKSRHRGWKPMRETLNVDSVFSESEKRQHSPRRKSDIGNRPKCSKDQSCNNWPKANPKRKGLMTIYEDEMKQEAGSRSSHETNGKGAEKNTGAAESRGPGSSWQMQRTESGYESSDHVSNGSASLDSPGIDGSGAVMDVGGGKAFSEQIKMNSPNTDSVECVSHQSKDLPEGFRKDLQDLEADDKSYELHPESHVQIKNHLIKRSQIGETNDKLFPSASSQTPAREYVYQTNEQKGEKPDRTKCSEWRNTEISEGMGLPFHVDESSVAGKRVNSNETVSPSSLSSSVRTAGLKAETGPVIFWPQQNITEQGYSENSLSRELTRQSACNADSCQMPKLHCHRSPPPLPPKKYSTTSVPRLERAGFIPDVRLPEAFNTNFSSLPKHSLSTASGPSSEGSAYMTQEKDKETIQVKHQAANSCPSSCSTGGFQANSKALVNMFCEPDQDSRSMCPSETVSLTTYFSVDSCMTDTYRLKYHQRPKLCFPESSGHCSDKSLSQTEQVEGSIT
binding [1]: binds
